Measurements from PubChem BioAssay AID328 (DTP/NCI, 2004).
The list shows only some results of the screen, not a fair sample: it gathers tests that were run many times, whatever their T/C, doses with no T/C, and many T/C values between a quarter and a half above the control. Further doses and runs are listed elsewhere. T/C is the treated group as % of the vehicle group. Some entries give survivors of the animals treated and no T/C: the source holds a T/C of zero for them, seemingly a mark for toxic or unscored doses. Some doses without a T/C left all or most animals alive at the check, yet need not have been tolerated: survival well below the control is almost never listed, so the zero probably covers shortened survival too. Survivors were counted at the toxicity check, usually on the fifth day, unless a day is given; later deaths do not show. Schedules are NCI's codes, read here as Q, the interval in days (D) or hours (H), X, the number of doses. Some entries were tested several times; the values are given in rising order. For survival time, the PubChem record calls one and a half times the control and up active, and a quarter to a half above the control has no call in these data; cut-offs in other NCI protocols can differ. Some T/C values carry the count of animals alive at the toxicity check (mostly the fifth day); where none is given, no animal had died by that day.

System: BDF1 mice, P388 leukemia ip, median survival T/C
Assay: NCI In Vivo Anticancer Drug Screen. Data for tumor model P388 Leukemia (intraperitoneal) in B6D2F1 (BDF1) mice
Conditions: T/C endpoint: median survival time, higher T/C = longer survival
Summary of the method: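 Transplantable tumour in mice; compound vs vehicle dosing; survival scored; ratio of treated to control reported.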

[1] = dose: 100.0 mg/kg/injection, schedule: Q04DX003 (ip), vehicle: saline with Tween-80
[2] = dose: 200.0 mg/kg/injection, schedule: Q04DX003 (ip), vehicle: saline with Tween-80
[3] = dose: 400.0 mg/kg/injection, schedule: Q04DX003 (ip), vehicle: saline with Tween-80
[4] = dose: 20.0 mg/kg/injection, schedule: Q04DX003 (ip), vehicle: water
[5] = dose: 10.0 mg/kg/injection, schedule: Q04DX003 (ip), vehicle: water

In the case of `C1CSCCO1.[Cu+2].[O-][Cl+3]([O-])([O-])O`, the survivor count [1] is reported as 0 of 6, the survivor count [2] is reported as 0 of 6 and the survivor count [3] is reported as 0 of 6.
For `CC1(C)COCN1COC1CCCCC1`, the T/C (dose: 50.0 mg/kg/injection, schedule: Q01DX009 (ip), vehicle: saline with Tween-80) was 139 % of control and the T/C (dose: 100.0 mg/kg/injection, schedule: Q01DX009 (ip), vehicle: saline with Tween-80) was 138 % of control.
In the case of `C=C(C)C(=O)O[C@H]1[C@H]2[C@H](OC(=O)[C@H]2C)[C@H](O)[C@@H](C)[C@@H]2C=CC(=O)[C@]21C`, the T/C (dose: 12.5 mg/kg/injection, schedule: Q01DX009 (ip), vehicle: saline) is reported as 131 % of control.
For `C1CN1c1nc(N2CC2)nc(N2CC2)n1`, the T/C (dose: 0.12 mg/kg/injection, schedule: Q01DX010 (ip), vehicle: water) was 136 % of control, the survivor count (dose: 0.2 mg/kg/injection, schedule: Q01DX009 (ip), vehicle: saline) was 3 of 6 and the T/C (dose: 0.25 mg/kg/injection, schedule: Q01DX009 (ip), vehicle: saline) was 136 % of control. The T/C (dose: 1.0 mg/kg/injection, schedule: Q01DX009 (ip), vehicle: saline) was 145 % of control, the survivor count (dose: 1.0 mg/kg/injection, schedule: Q01DX010 (ip), vehicle: saline) was 6 of 6 and the survivor count (dose: 1.6 mg/kg/injection, schedule: Q01DX009 (ip), vehicle: saline) was 2 of 6. For the same compound, the survivor count (dose: 3.2 mg/kg/injection, schedule: Q01DX009 (ip), vehicle: saline) was 3 of 6.
`CC1(COCCOCC2(C)CO2)CO1` (centres undefined) was tested, and the T/C (dose: 264.0 mg/kg/injection, schedule: Q01DX009 (ip), vehicle: saline) was 145 % of control.
For `CCOC(=O)C(Cc1ccc(N(CCCl)CCCl)cc1)NC(=O)C(CC(C)C)NC(C)=O` (centres undefined), the T/C [4] was 131 % of control.
With `CN(C)P(=O)(N(C)C)N1CC1` the T/C (dose: 50.0 mg/kg/injection, schedule: Q04DX003 (ip), vehicle: saline) was 133 % of control and the survivor count (dose: 300.0 mg/kg/injection, schedule: Q04DX003 (ip), vehicle: saline) was 6 of 6.
`Cc1ccc(N2C=Nc3ccc(C)cc3C2)cc1` was tested, and the T/C (dose: 25.0 mg/kg/injection, schedule: Q01DX009 (ip), vehicle: Klucel (hydroxypropylcellulose) (HPC)) was 127 % of control, the survivor count (dose: 400.0 mg/kg/injection, schedule: Q01DX009 (ip), vehicle: Klucel (hydroxypropylcellulose) (HPC)) was 0 of 6 and the survivor count (dose: 400.0 mg/kg/injection, schedule: Q04DX003 (ip), vehicle: other) was 2 of 6.
For `O=C(O)c1onc2ccccc12`, the survivor count (dose: 400.0 mg/kg/injection, schedule: Q01DX001 (ip), vehicle: saline with Tween-80) was 0 of 6.
In the case of `N[C@@H](Cc1ccc(N(CCCl)CCCl)cc1)C(=O)O`, the survivor count (dose: 4.0 mg/kg/injection, schedule: Q01DX009 (ip), vehicle: saline) is reported as 10 of 10, the T/C (dose: 5.0 mg/kg/injection, schedule: Q04DX003 (ip), vehicle: water, evaluated on day 30) is reported as 234, 236, 264 % of control and the T/C (dose: 5.0 mg/kg/injection, schedule: Q04DX003 (ip), vehicle: water, evaluated on day 45) is reported as 111 % of control. For the same compound, the T/C (dose: 6.0 mg/kg/injection, schedule: Q04DX003 (ip), vehicle: Klucel (hydroxypropylcellulose) (HPC), evaluated on day 5) was 112, 206, 413 % of control, the T/C (dose: 6.0 mg/kg/injection, schedule: Q04DX003 (ip), vehicle: Klucel (hydroxypropylcellulose) (HPC), evaluated on day 60) was 112, 206, 413, 427 % of control and the T/C (dose: 8.0 mg/kg/injection, schedule: Q01DX001 (ip), vehicle: Klucel (hydroxypropylcellulose) (HPC), evaluated on day 5) was 119, 176, 208, 263, 520 % of control. The T/C (dose: 8.0 mg/kg/injection, schedule: Q01DX001 (ip), vehicle: Klucel (hydroxypropylcellulose) (HPC), evaluated on day 60) was 120, 176, 208, 245, 263, 520 % of control, the survivor count (dose: 8.0 mg/kg/injection, schedule: Q01DX009 (ip), vehicle: saline) was 6 of 10 and 9 of 10 and the survivor count (dose: 8.0 mg/kg/injection, schedule: Q01DX010 (ip), vehicle: saline) was 6 of 6. For the same compound, the T/C (dose: 9.0 mg/kg/injection, schedule: Q04DX003 (ip), vehicle: Klucel (hydroxypropylcellulose) (HPC), evaluated on day 5) was 107, 260, 520 % of control, the T/C (dose: 9.0 mg/kg/injection, schedule: Q04DX003 (ip), vehicle: Klucel (hydroxypropylcellulose) (HPC), evaluated on day 60) was 107, 260, 520, 545 % of control and the T/C (dose: 10.0 mg/kg/injection, schedule: Q01DX001 (ip), vehicle: saline) was 295, 324, 400, 534, 536, 541, 549, 565 % of control. The T/C [5] was 176 [5 of 6 alive], 232, 263 % of control, the survivor count [5] was 6 of 6 and the T/C (dose: 12.0 mg/kg/injection, schedule: Q01DX001 (ip), vehicle: Klucel (hydroxypropylcellulose) (HPC), evaluated on day 5) was 113, 243, 294, 520, 532 % of control. For the same compound, the T/C (dose: 12.0 mg/kg/injection, schedule: Q01DX001 (ip), vehicle: Klucel (hydroxypropylcellulose) (HPC), evaluated on day 60) was 113, 243, 294, 363, 520, 532 % of control, the T/C (dose: 12.0 mg/kg/injection, schedule: Q04DX003 (ip), vehicle: Klucel (hydroxypropylcellulose) (HPC), evaluated on day 5) was 252, 350, 521 % of control and the T/C (dose: 12.0 mg/kg/injection, schedule: Q04DX003 (ip), vehicle: Klucel (hydroxypropylcellulose) (HPC), evaluated on day 60) was 252, 350, 521 % of control. The T/C (dose: 12.5 mg/kg/injection, schedule: Q01DX001 (ip), vehicle: saline) was 293, 525, 534, 540, 548, 565 % of control, the T/C (dose: 15.0 mg/kg/injection, schedule: Q01DX001 (ip), vehicle: saline) was 431, 526 [9 of 10 alive], 535, 540, 549, 565 % of control and the survivor count (dose: 16.0 mg/kg/injection, schedule: Q01DX009 (ip), vehicle: saline) was 6 of 10. The T/C (dose: 18.0 mg/kg/injection, schedule: Q01DX001 (ip), vehicle: Klucel (hydroxypropylcellulose) (HPC), evaluated on day 5) was 109, 205, 254, 347, 520 % of control, the T/C (dose: 18.0 mg/kg/injection, schedule: Q01DX001 (ip), vehicle: Klucel (hydroxypropylcellulose) (HPC), evaluated on day 60) was 109, 205, 227, 254, 347, 520 % of control and the T/C [4] was 105, 113, 116 % of control. For the same compound, the survivor count [4] was 5 of 6, the survivor count (dose: 32.0 mg/kg/injection, schedule: Q01DX009 (ip), vehicle: saline) was 3 of 10 and the survivor count (dose: 40.0 mg/kg/injection, schedule: Q04DX003 (ip), vehicle: water) was 0 of 6. The survivor count (dose: 64.0 mg/kg/injection, schedule: Q01DX009 (ip), vehicle: saline) was 4 of 10, the survivor count (dose: 128.0 mg/kg/injection, schedule: Q01DX009 (ip), vehicle: saline) was 0 of 10 and the survivor count (dose: 256.0 mg/kg/injection, schedule: Q01DX009 (ip), vehicle: saline) was 0 of 10.
With `C(=C(c1ccccc1)c1ccccc1)c1ccccn1` the survivor count [1] was 6 of 6, the survivor count [2] was 6 of 6 and the survivor count [3] was 6 of 6.
